In PubChem BioAssay AID2685 (National Center for Advancing Translational Sciences (NCATS), 2010) one finds AC50 and cell number change data, which are given here for 58 compounds.

SMILES strings stand for the structures. Some of the results follow. The main result of the screen is listed elsewhere. These columns were measured beside it and carry no call. Compounds called inactive in the main read-out are mostly missing here. Words in brackets tell the shape of the fitted curve; partial curves, single points and poor fits give uncertain potencies.

The assay is described as follows: qHTS Assay for Lipid Storage Modulators in Drosophila S3 Cells.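 For cell number change: cells counted by Cell Tracker Red CMTPX staining in the red channel.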 The following applies: BODIPY lipid droplet fluorescence, 18-24 h; for cell number change: measured here: cell count max response, cells fed with added oleic acid. The method in brief:
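Drosophila S3 cells got compounds at several concentrations plus oleic acid (400 uM solution). Laser-scanning cytometry with 488 nm excitation read lipid droplets at 500-530 nm and cells at 575-640 nm. Percent activity was relative to 20 uM Triacsin C.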

[1] abbreviates: measured here: cell number channel AC50, cells fed with added oleic acid.
Where [2] appears, read: measured here: lipid fluorescence (Fed channel) AC50, cells fed with added oleic acid.

`O=C(CCN1C(=O)C2CCCCC2C1=O)N1CCN(S(=O)(=O)c2c(F)cccc2F)CC1` (stereo not given): the AC50 under setting [1] was 6.51 µM [falling, single point]. For `COc1ccc(CSCC(=O)NN=C2CCN(C)CC2)cc1`, the cell number change came out at 14.3%. Further, under setting [1], the AC50 is 0.0731 µM [falling, partial curve, poor fit].

Turning to `C=CC(=O)Nc1ccc(Br)cc1`, the cell number change was 31.2%. The AC50 under setting [1] was 7.31 µM [rising, partial curve]. The AC50 under setting [2] is 6.51 µM [rising, single point].

In the case of `Cc1cc(C)cc(NC(=O)c2ccccc2NC(=O)CCC(=O)O)c1`, the cell number change was -51.2%. Also, the AC50 under setting [1] was 29.1 µM [falling, single point]. Under setting [2], the AC50 is 3.26 µM [rising, single point]. Take `COc1ccc(N2CCN(CCNC(=O)CCS(=O)(=O)c3cccc4nsnc34)CC2)cc1`: the cell number change is 3.21%. Also, the AC50 under setting [2] was 25.9 µM [rising, single point]. On to `O=C1NCN(c2ccccc2)C12CCN(CCCC(c1ccc(F)cc1)c1ccc(F)cc1)CC2`, for which the cell number change is -52.8%. Further, the AC50 under setting [2] was 18.4 µM [falling, single point]. As for `O=C(NCc1ccc2c(c1)OCO2)C1CCC(CNc2c(N3CCCCC3)c(=O)c2=O)CC1` (stereo not given), the AC50 under setting [2] was 0.092 µM [rising, full curve, poor fit]. In the case of `CC(=O)Nc1cccc(NC(=O)CSc2nc(=O)n3cccc(C)c3n2)c1`, the cell number change worked out at 19.5%. For the same compound, under setting [1], the AC50 is 0.326 µM [rising, full curve, poor fit]. For the same compound, under setting [2], the AC50 is 0.58 µM [rising, full curve, poor fit]. `Oc1ccc(-c2csc(-c3c[nH]c4ccccc34)n2)c(O)c1`: the cell number change is -23.7%. In addition, the half-maximal activity concentration (AC50) under setting [2] was 0.231 µM [rising, partial curve, poor fit].

For the compound `Cc1ccc(Cl)c(OCCN2CCc3ccccc3C2)c1`, the cell number change is -24.9%. Take `Cc1ccc(NC(=O)c2ccccc2OCC(=O)c2ccccc2)cc1`: the cell number change is -18.7%. Besides, the AC50 under setting [2] is 2.06 µM [rising, partial curve]. Regarding `COc1ccc(C(=O)OCC(=O)NCCCc2ccccc2)cc1OC`, the cell number change was found to be 9.01%. In addition, the AC50 under setting [2] was 6.51 µM [rising, single point]. With `Cn1c(SCC(=O)N2CCCC2)nc2ccccc21`, the cell number change was -15%. Take `C1CCC(NC2=NCCC2)CC1`: the cell number change turned out to be 25.6%. Further, the AC50 under setting [2] is 10.3 µM [rising, partial curve]. `Cc1c(C(=O)N(C)C(C)c2ccccn2)oc2c(F)cccc12` (stereo not given): the cell number change is -2.09%. Moreover, the AC50 under setting [2] was 1.84 µM [falling, partial curve]. As for `C=CCNc1nc(NCCN2CCOCC2)nc(N2CCOCC2)n1`, the cell number change is 4.92%. In addition, the AC50 under setting [2] is 3.66 µM [falling, full curve, poor fit].

Turning to `Cc1cc(Cl)c(S(=O)(=O)Nc2ccc3c(c2)OCO3)cc1OCC(N)=O`, the cell number change came out at 54.3%. The AC50 under setting [1] is 0.731 µM [rising, full curve]. Moreover, the AC50 under setting [2] is 1.03 µM [rising, partial curve]. For `CCOc1ccc(NC(=O)CN(C)C(=O)CCC2CCCCC2)cc1OCC`, the cell number change amounted to 2.61%. Under setting [2], the concentration at half-maximal activity (AC50) is 0.00461 µM [rising, full curve, poor fit]. For the compound `CCCn1c(=O)c2ccccc2n2c(SCc3cc(=O)oc4ccc5ccccc5c34)nnc12`, the cell number change amounted to 13.2%. The AC50 under setting [2] is 0.164 µM [falling, partial curve, poor fit]. With `O=C1OCC/C1=C\c1ccccc1O`, the cell number change turned out to be 13.3%.

As for `CCOC(=O)c1cn2c(C)cccc2n1`, the cell number change is -25.2%. Also, the AC50 under setting [1] is 0.184 µM [rising, single point]. The AC50 under setting [2] was 4.11 µM [falling, single point]. On to `CCOc1ccc(-c2cc(C)n3nc(C(N)=O)cc3n2)cc1`, for which the AC50 was 3.66 µM [rising, partial curve] under setting [1] and 2.31 µM [rising, partial curve] under setting [2]. In the case of `CCOC(=O)c1cnn(-c2nc(OC)cc(OC)n2)c1C(F)(F)F`, the AC50 by setting is: under setting [1], 0.58 µM [rising, single point]; under setting [2], 0.58 µM [rising, single point].

Regarding `CSc1ccc(CN(C)C(=O)CCNS(=O)(=O)c2ccc(C)c(C)c2)cc1`, the cell number change is -57.3%. In addition, the AC50 under setting [1] was 25.9 µM [falling, partial curve]. Also, under setting [2], the AC50 was 0.0651 µM [falling, full curve]. With `CC1CCN(c2c(NCC3CCC(C(=O)N4CCCCC4)CC3)c(=O)c2=O)CC1` (stereo not given), the cell number change worked out at 11.4%. `CCOC(=O)c1nn(-c2cccc(OC)c2)c2nc(Nc3ccccc3)cc(=O)n12`: the cell number change was -11.8%. The AC50 under setting [2] was 2.91 µM [rising, full curve]. `O=C(O)c1ccccc1C(=O)N1CCN(Cc2ccc3c(c2)OCO3)CC1`: the cell number change is -11.1%. Besides, the AC50 under setting [1] is 2.06 µM [falling, single point].

Turning to `COc1cccc(/C=N/NC(=O)CNC(=O)C2COc3ccccc3O2)c1O` (stereo not given), the cell number change is -1.64%. For the same compound, the AC50 under setting [2] was 2.91 µM [falling, full curve, poor fit]. Turning to `O=S(=O)(Nc1ccc(-n2cnnn2)cc1)c1cccc(Cl)c1`, the cell number change is 8.84%. With `c1ccc2c(N3CCCCC3)ncnc2c1`, the cell number change was -10.5%. The AC50 under setting [2] was 18.4 µM [rising, single point]. Regarding `COc1ccc(NC(=O)Cn2cnc3c(cnn3-c3ccc(C)c(C)c3)c2=O)c(OC)c1`, the cell number change was -23.6%. Moreover, under setting [1], the AC50 is 0.366 µM [falling, single point]. For the same compound, the AC50 under setting [2] is 6.51 µM [falling, single point].

For the compound `COc1ccc(OC)c(NC(=O)CSc2ccc3ccccc3c2)c1`, the cell number change was -16.3%. Further, under setting [2], the AC50 is 11.6 µM [falling, partial curve]. Regarding `Cc1nn(C(C)C(=O)NCC2CCCO2)c(C)c1[N+](=O)[O-]` (stereo not given), the cell number change was -0.294%. For the same compound, under setting [2], the AC50 was 0.164 µM [falling, full curve]. `CCOc1ccc(-c2nc(N)ncc2-c2ccccc2)c(O)c1`: the cell number change is -100%. Also, the AC50 under setting [1] is 23.1 µM [falling, single point]. Besides, the AC50 under setting [2] is 29.1 µM [falling, partial curve].

Take `CCOC(=O)Cn1ccc(O)c(Cc2ccc(Cl)cc2Cl)c1=O`: the AC50 under setting [2] is 6.51 µM [falling, single point]. In the case of `O=S(=O)(c1cccc(-c2cn3cccnc3n2)c1)N1CCOCC1`, the cell number change was -1.74%. In addition, the AC50 under setting [2] is 2.59 µM [rising, single point]. Turning to `CC(=O)C1(C)N(O)C(C)(C)C(c2cccs2)=[N+]1[O-]` (stereo not given), the cell number change is -36.1%. The AC50 under setting [1] is 16.4 µM [falling, partial curve]. For the same compound, the AC50 under setting [2] was 20.6 µM [falling, partial curve, poor fit].

Consider `CS(=O)(=O)N1CCN(C(=O)c2cc3ccccc3oc2=O)CC1`, for which the cell number change is -8.44%. The AC50 under setting [2] was 7.31 µM [falling, partial curve]. Consider `O=C(N/N=C/C=C/c1ccccc1[N+](=O)[O-])c1cc(-c2cccnc2)nc2ccccc12`, for which the cell number change was found to be 10.1%. For the same compound, under setting [2], the AC50 was 0.58 µM [rising, full curve]. As to `COCCCNC(=O)/C(C#N)=C/c1c(N2CCN(c3cccc(Cl)c3)CC2)nc2c(C)cccn2c1=O`, the cell number change was -42.2%. Besides, under setting [1], the AC50 was 25.9 µM [falling, single point]. Moreover, the AC50 under setting [2] is 0.58 µM [falling, full curve, poor fit].

In the case of `COc1ccccc1OCCOc1ccc(/C=N/n2cnnc2)cc1`, the cell number change is 5.17%. Take `COc1ccc(-n2nc3cc(C)c(NC(=O)CC(C)C)cc3n2)cc1`: the cell number change was -21.2%. For the same compound, the AC50 under setting [2] is 0.00411 µM [rising, full curve, poor fit]. On to `COC(=O)C1C(=O)C2=C(CC1C)NC(=O)CC2c1ccc(F)cc1` (stereo not given), for which the cell number change is -11.9%. Under setting [1], the AC50 is 0.731 µM [falling, single point].

For `O=C(CSc1nc2sc3c(c2c(=O)[nH]1)CCCC3)NCCO`, the cell number change stood at 9.85%. Further, the AC50 under setting [1] is 0.146 µM [rising, full curve, poor fit].

With `CC(=O)Cc1nsc(NC(=O)c2ccccc2Cl)n1`, the cell number change was -24.7%. For the same compound, the AC50 under setting [1] was 3.26 µM [falling, single point].

In the case of `O=C(NCCCN1CCCC1=O)c1cccc(S(=O)(=O)Nc2ccc(F)cc2)c1`, the cell number change is -20.5%. Further, the AC50 under setting [2] is 5.17 µM [falling, full curve, poor fit]. As to `COc1c(C)cc(C(=O)C2CCCN(C(=O)c3cc(C)n(C)n3)C2)cc1C` (stereo not given), the AC50 under setting [1] is 4.11 µM [rising, partial curve, poor fit] and the AC50 under setting [2] was 5.17 µM [rising, single point]. In the case of `COc1ccc(C)cc1S(=O)(=O)N1CCN(C(=O)c2ncoc2-c2cccc(C)c2)CC1`, the AC50 under setting [2] was 0.231 µM [rising, full curve]. As to `CCOC(=O)c1ccccc1NC(=O)c1cc(S(=O)(=O)N2CCOCC2)ccc1F`, the cell number change stood at 167%. In addition, the AC50 under setting [1] is 5.8 µM [rising, partial curve]. Also, the AC50 under setting [2] is 3.66 µM [rising, partial curve]. `CCOC(=O)C1=C(CN2CCN(C(=O)OCC)CC2)NC(=O)NC1c1ccc2c(c1)OCO2` (stereo not given): the cell number change is 19.7%. Besides, the AC50 under setting [2] is 6.51 µM [rising, single point].

As to `O=C1/C(=C/c2ccc(F)cc2)SC(=S)N1CC(=O)N1CCCCC1c1cccnc1` (stereo not given), the cell number change was -21.7%. Moreover, the AC50 under setting [2] was 29.1 µM [falling, single point].

In the case of `O=C(NCc1ccc2c(c1)OCO2)c1cccc(C(=O)NCc2ccc3c(c2)OCO3)c1`, the cell number change is -18.8%. In addition, under setting [2], the AC50 was 2.06 µM [rising, single point]. `COc1ccc(/C=C/C(=O)ONC2=NCCCCC2)cc1OC`: the cell number change turned out to be 71.8%. Moreover, the half-maximal activity concentration (AC50) under setting [1] was 29.1 µM [rising, single point]. The AC50 under setting [2] was 0.116 µM [falling, full curve]. As for `COc1ccc(S(=O)(=O)Nc2ccccn2)cc1OC`, under setting [2], the AC50 was 0.58 µM [falling, single point].

Regarding `CCn1c(=O)c(=O)[nH]c2cc(C(=O)N3CCN(Cc4ccc5c(c4)OCO5)CC3)ccc21`, the cell number change was -30.5%. In addition, the AC50 under setting [1] is 0.184 µM [falling, full curve, poor fit]. As to `COC(=O)C1=C(C)NC(C)=C(C(=O)OC)C1c1ccc(NC(C)=O)cc1`, the cell number change is -0.875%. On to `Cc1sc2ncnc(N3CCC(C(=O)Nc4nc(-c5ccc(F)cc5)cs4)CC3)c2c1C`, for which the cell number change is -9.08%. Consider `Cc1nn(C)cc1NC(=O)c1nn(C)cc1[N+](=O)[O-]`, for which the cell number change was determined as 7.62%. For the same compound, the AC50 under setting [2] is 32.6 µM [falling, single point].
